This list was built around the results that the source calls inconclusive (neither active nor inactive); the mix of calls is not that of the screen. A potency beside an inconclusive call is a rough fit, not a confirmed value. Active and inactive are the calls of the source. Calls follow the shape of the dose curve; as a rule, active = well fitted inhibition curve with a large enough effect; inconclusive = small, poorly fitted or top-dose-only effect, or effect the other way; inactive = no such curve, though single readings can be large or run the other way.
Experiment: Confirmation Concentration-Response Assay for Inhibitors of the ERK Signaling Pathway using a Homogeneous Screening Assay; Stimulation with EGF
Conditions: HEK293 EGF-stimulated ERK phosphorylation, AlphaScreen; series mostly up to 57.5 µM
Source text: qHTS Assay for Inhibitors of the ERK Signaling Pathway using a Homogeneous Screening Assay
NIH Chemical Genomics Center [NCGC]
NIH Molecular Libraries Screening Centers Network [MLSCN]
Assay Submitter (PI): Dr. Wei Zheng, NCGC/NIH
The Ras/extracellular-signal-regulated kinase (ERK) mitogen activated protein (MAP) kinase signaling pathway (ERK1/2 cascade) plays is a key role in transmitting signals from the cell surface to the nucleus (Nishida and Gotoh 1993; Chang and Karin, 2001). The cascade is initiated by the small G-protein Ras, which recruits Raf […], where activation occurs. Alternatively, this pathway can be activated by elevating intracellular cAMP.
Activation of the ERK pathway is essential in increased cell division and cell survival. Sustained and constitutive activation of the ERK pathway, however, has been linked to uncontrolled cell proliferation, increased cell survival, and tumor progression. Thus, the ERK has been as an attractive target for cancer chemotherapy in the past few years (Sebolt-Leopold and Herrera, 2004). Given its physiological and pathological importance, assessment of ERK phosphorylation has been broadly performed in both basic research and drug discovery. Most assays for the measurement of ERK phosphorylation use the antibody-based detection methods, such as western blot and ELISA. These assays require multiple reagent additions with cell wash steps and are not suitable for high-throughput screening.
The current cell-based ERK phosphorylation assay was performed using AlphaScreen platform. AlphaScreen is a two bead-based proximity-dependent chemical energy transfer luminescent assay platform. The assay reagents (ERK SureFire(TM) kit) were supplied from TGR BioSciences (Australia). In the presence of specific antibodies, phosphorylated ERK will bring "donor" and "acceptor" beads to a proximity range (<200 nm), and subsequently lead a chemical luminescent reaction upon exciting donor beads with 680 nm laser. To exclude the assay-related false positives, we used a biotinylated rabbit IgG to perform a counter-screen. The biotinylated antibody mimics the phosphorylated ERK1/2 for bringing streptavidin coated beads and protein-A coated beads to a proximity range for the AlphaScreen detection.
It turns out the stimulation of the ERK signaling pathway is also possible by stimulating endogenous EGFR in the HEK293 cells. This assay was run to look for differences in inhibition of the pathway between the two stimulation mechanisms. This is a second confirmatory assay that re-tested some inhibitors that were previously tested in assay 1454.
NCGC Assay Protocol Summary:
HEK293 cells stably expressing type-1 vasopressin receptor (V1b) were maintained in DMEM medium (Invitrogen, Carlsbad, CA) at 37C under a humidified atmosphere containing 5% CO2 and 95% air. The medium contained 10% FBS, 2 mM L-glutamine, non-essential amino acid, pyruvate and 50 U/ml penicillin and 50 ug/ml streptomycin (Invitrogen). The aliquots of frozen cells were stored at -135C and used for the compound screening. All compounds were screened as titrations from 0.6 nM to 46 uM final concentration. Epidermal growth factor (EGF) was used to stimulate the ERK phosphorylation pathway. The ERK phosphorylation in cells was determined using an AlphaScreen assay kit provided by PerkinElmer. Data were normalized to the controls for basal activity (DMSO only) and 100% activation (25 nM epidermal growth factor). AC50 values were determined from concentration-response data modeled with the standard Hill equation.
(1) Seed 4 ul/well of resuspended frozen HEK293 cells containing 2000 cells in white 1536-well plates for overnight with 1% FBS at 37C under a humidified atmosphere containing 5% CO2 and 95% air.
(2) Add 23 nL compounds in DMSO solution. The final titration was 0.6 nM to 46 uM.
(3) Incubate at 37C for 30 min.
(4) Dispense 0.5uL vasopressin (25 nM in final)
(5) Incubate at 37C for 5 min.
(6) Dispense 0.5uL of 1:2 diluted 5x lysis buffer.
[…]
With `CC(=O)N1CCC(=NNc2nc3ccccc3s2)CC1` the Potency was inconclusive: 7.08e-05 µM [activator, full curve, poor fit].
For `O=[N+]([O-])c1ccccc1N/N=C/c1ccc2c(c1)OCO2`, the Potency was inconclusive: 2 µM [inhibitor, full curve, poor fit].
With `CC1(C)OC(c2ccccc2)=C/C(=C/C=C2C(=O)c3ccccc3C2=O)O1` the Potency was inconclusive: 12.6 µM [activator, partial curve, poor fit].
With `COc1ccc(-c2nc3cnc(N(C)C)nc3n(CCc3ccccc3)c2=O)cc1` the Potency was inconclusive: 8.91 µM [activator, full curve, poor fit].
For `N#CC(C#N)=C1C=CC=CN1/C(=C\c1ccco1)C(=O)c1ccc(Cl)cc1`, the Potency was inconclusive: 11.2 µM [inhibitor, single point].
In the case of `CCCN1C(=O)/C(=C2/C=Cc3ccccc3N2CC)SC1=S`, the Potency is reported as active: 10 µM.
For `O=C1c2ccc(O)c(O)c2C(=O)c2c(O)ccc(O)c21`, the Potency was active: 10 µM.
In the case of `Cc1cc(-c2ccccc2)n(-c2cc(N/N=C/c3ccccc3O)ncn2)n1`, the Potency is reported as inconclusive: 11.2 µM [inhibitor, single point].
With `Cc1sc2ncnc(Nc3ccccc3)c2c1C` the Potency was inconclusive: 12.6 µM [inhibitor, single point].
For `CCCNc1ncnc2sc(C)c(C)c12`, the Potency was “inactive”.
In the case of `C=C[C@]1(C)CC(=O)[C@@]2(O)[C@@]3(C)C(O)CCC(C)(C)C3C(O)C(OC(C)=O)[C@@]2(C)O1` (some centres not stated), the Potency is reported as “inactive”.
In the case of `CCOc1ccc(/C(O)=C2/C(=O)C(=O)N(c3ncccn3)C2c2ccccc2)cc1` (configuration not stated), the Potency is reported as “inactive”.
In the case of `CCCOc1ccc(/C=N/Nc2ccccc2[N+](=O)[O-])c(O)c1`, the Potency is reported as inconclusive: 10 µM [inhibitor, partial curve, poor fit].
With `O=c1cc(-c2ccc(O)cc2)oc2cccc(O)c12` the Potency was “inactive”.
For `Cc1sc2ncnc(Sc3nnnn3-c3ccc(Cl)cc3)c2c1C`, the Potency was “inactive”.
For `Cn1nc(-c2ccc(Cl)cc2)nc2c(=O)n(C)c(=O)nc1-2`, the Potency was inconclusive: 35.5 µM [inhibitor, partial curve, poor fit].
With `C=CCN1C(=O)/C(=C/C=C2/N(CC)c3ccc(S(=O)(=O)N(C)C)cc3N2CC)SC1=S` the Potency was inconclusive: 8.91 µM [inhibitor, partial curve, poor fit].
